Values quoted from earlier work in US20160143926A1, “COMPOSITIONS AND METHODS FOR THE PREPARATION OF KIDNEY PROTECTIVE AGENTS COMPRISING AMIFOSTINE AND AMINO ACIDS” (priority 2013, published 2016).
Some results were stated once for a whole list of compounds, not compound by compound.

System: kidneys
Conditions: intravenous injection; cited from earlier work

Row | Structure (SMILES) | kidney protection against 111In-DTPA-octeotide renal accumulation
1 | NCCCC[C@@H](N)C(=O)O [D-Lysine] | more than 50%
2 | NCCCC[C@H](N)C(=O)O [L-Lysine] | more than 50%
